Experiment in all cases: glycan array binding signal (z-score within array); higher = stronger binding
What all share (conditions): glycan notation: IUPAC condensed, linker removed

In one assay the target is GlcNAc(b1-6)GalNAc. An outline of the steps: (§1)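 The binding signal is a Z-score computed within each array and averaged over linkers. Arrays of the same protein sequence at different concentrations or buffers were also averaged together. Data originate from 3228 arrays in the Consortium for Functional Glycomics database, kept only where the protein sequence was available.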

The next assay addresses GlcNAc3Prop(b1-4)GlcNAc. An outline of the steps:
as §1

Assay [1] concerns the target GlcNAc6S(b1-3)Gal(b1-4)GlcNAc. An outline of the steps:
as §1

For another assay, the target named is Kdn(a2-3)Gal(b1-3)GalNAc. The procedure, abridged: as §1
A further assay concerns the target Kdn(a2-3)Gal(b1-3)GlcNAc. An outline of the steps:
as §1

The next assay addresses Kdn(a2-3)Gal(b1-4)Glc. The procedure, abridged:
as §1

The target of the next assay is Kdn(a2-3)Gal(b1-4)GlcNAc. An outline of the steps:
as §1

The target of assay [2] is Kdn(a2-3)Gal(b1-4)[Fuc(a1-3)]GlcNAc. An outline of the steps: as §1
The next assay has as its target Kdn(a2-6)Gal(b1-4)GlcNAc. An outline of the steps: as §1
In assay [3] the target is Man(a1-2)Man(a1-2)Man(a1-3)Man. An outline of the steps:
as §1

For assay [4], the target named is Man(a1-2)Man(a1-2)Man(a1-6)[Man(a1-3)]Man. An outline of the steps:
as §1

Another assay addresses Man(a1-2)Man(a1-3)Man. An outline of the steps: as §1
Assay [5] concerns the target Man(a1-2)Man(a1-3)[Man(a1-2)Man(a1-6)]Man. An outline of the steps: as §1
Assay [6] has as its target Man(a1-2)Man(a1-3)[Man(a1-2)Man(a1-6)]Man(a1-6)[Man(a1-2)Man(a1-2)Man(a1-3)]Man. An outline of the steps: as §1
Assay [7] addresses Man(a1-2)Man(a1-3)[Man(a1-2)Man(a1-6)]Man(a1-6)[Man(a1-2)Man(a1-2)Man(a1-3)]Man(b1-4)GlcNAc(b1-4)GlcNAc. The procedure, abridged:
as §1

The target of assay [8] is Man(a1-2)Man(a1-3)[Man(a1-6)]Man(a1-6)[Man(a1-2)Man(a1-3)]Man(b1-4)GlcNAc(b1-4)GlcNAc. The procedure, abridged: as §1
The target in assay [9] is Man(a1-2)Man(a1-6)[Man(a1-3)]Man(a1-6)[Man(a1-2)Man(a1-2)Man(a1-3)]Man. The procedure, abridged:
as §1

Assay [10] deals with Man(a1-2)Man(a1-6)[Man(a1-3)]Man(a1-6)[Man(a1-2)Man(a1-2)Man(a1-3)]Man(b1-4)GlcNAc(b1-4)GlcNAc. The procedure, abridged:
as §1

The next assay has as its target Man(a1-3)[Man(a1-6)]Man. The procedure, abridged:
as §1

For assay [11], the target named is Man(a1-3)[Man(a1-6)]Man(a1-6)[Man(a1-2)Man(a1-3)]Man(b1-4)GlcNAc(b1-4)GlcNAc. An outline of the steps: as §1
Assay [12] addresses Man(a1-3)[Man(a1-6)]Man(a1-6)[Man(a1-3)]Man. An outline of the steps:
as §1

Assay [13] has as its target Man(a1-3)[Man(a1-6)]Man(a1-6)[Man(a1-3)]Man(b1-4)GlcNAc(b1-4)GlcNAc. The procedure, abridged: as §1

This is one part of the list.

B1: Flo11 (Saccharomyces cerevisiae), P08640 (protein)
chain: MQRPFLLAYLVLSLLFNSALGFPTALVPRGSSEGTSCNSIVNGCPNLDFNWHMDQQNIMQYTLDVTSVSWVQDNTYQITIHVKGKENIDLKYLWSLKIIGVTGPKGTVQLYGYNENTYLIDNPTDFTATFEVYATQDVNSCQVWMPNFQIQFEYLQGSAAQYASSWQWGTTSFDLSTGCNNYDNQGHSQTDFPGFYWNIDCDNNCGGTKSSTTTSSTSESSTTTSSTSESSTTTSSTSESSTTTSSTSESSTSSSTTAPATPTTTSCTKEKPTPPTTTSCTKEKPTPPHHDTTPCTKKKTTTSKTCTKKTTTPVPTPSSSTTESSSAPVPTPSSSTTESSSAPVTSSTTESSSAPVPTPSSSTTESSSAPVTSSTTESSSAPVTSSTTESSSAPVPTPSSSTTESSSAPVTSSTTESSSAPVTSSTTESSSAPVTSSTTESSSAPVTSSTTESSSAPVPTPSSSTTESSSAPVTSSTTESSSAPVPTPSSSTTESSSAPVTSSTTESSSAPVPTPSSSTTESSSAPAPTPSSSTTESSSAPVTSSTTESSSAPVPTPSSSTTESSSTPVTSSTTESSSAPVPTPSSSTTESSSAPVPTPSSSTTESSSAPAPTPSSSTTESSSAPVTSSTTESSSAPVPTPSSSTTESSSAPVPTPSSSTTESSSAPVPTPSSSTTESSSAPVTSSTTESSSAPVTSSTTESSSAPVPTPSSSTTESSSAPVPTPSSSTTESSSAPVPTPSSSTTESSSAPVTSSTTESSSAPVPTPSSSTTESSSAPVPTPSSSTTESSSAPVPTPSSSTTESSVAPVPTPSSSSNITSSAPSSTPFSSSTESSSVPVPTPSSSTTESSSAPVSSSTTESSVAPVPTPSSSSNITSSAPSSIPFSSTTESFSTGTTVTPSSSKYPGSQTETSVSSTTETTIVPTKTTTSVTTPSTTTITTTVCSTGTNSAGETTSGCSPKTVTTTVPTTTTTSVTTSSTTTITTTVCSTGTNSAGETTSGCSPKTITTTVPCSTSPSETASESTTTSPTTPVTTVVSTTVVTTEYSTSTKPGGEITTTFVTKNIPTTYLTTIAPTPSVTTVTNFTPTTITTTVCSTGTNSAGETTSGCSPKTVTTTVPCSTGTGEYTTEATTLVTTAVTTTVVTTESSTGTNSAGKTTTGYTTKSVPTTYVTTLAPSAPVTPATNAVPTTITTTECSAATNAAGETTSVCSAKTIVSSASAGENTAPSATTPVTTAIPTTVITTESSVGTNSAGETTTGYTTKSIPTTYITTLIPGSNGAKNYETVATATNPISIKTTSQLATTASASSVAPVVTSPSLTGPLQSASGSAVATYSVPSISSTYQGAANIKVLGNFMWLLLALPVVF
For B1, the “glycan array binding signal (z-score)” value is -0.005 with GlcNAc(b1-6)GalNAc; -0.021 with GlcNAc3Prop(b1-4)GlcNAc; 0.614 in assay [1]; -0.649 with Kdn(a2-3)Gal(b1-3)GalNAc; -0.123 with Kdn(a2-3)Gal(b1-3)GlcNAc; -0.682 with Kdn(a2-3)Gal(b1-4)Glc. Also, the “glycan array binding signal (z-score)” value with Kdn(a2-3)Gal(b1-4)GlcNAc is 0.495; in assay [2], -0.53; with Kdn(a2-6)Gal(b1-4)GlcNAc it was 0.117; in assay [3], 7.09; in assay [4], -0.722; with Man(a1-2)Man(a1-3)Man, -0.508. For the same molecule, the “glycan array binding signal (z-score)” value in [5] was -0.669; in [6], 0.07; in [7], -0.63; in assay [8], 0.278; in [9] it was -1.06; in assay [10], -1.08. The “glycan array binding signal (z-score)” value in the assay with Man(a1-3)[Man(a1-6)]Man is 0.186; in assay [11], 1.5; in assay [12], -0.88; in assay [13] it was -0.897.

(Values after the supplement of paper PMC8728848.)
